The values that follow come from paper PMC11445549.

Sequences of proteins named here, by UniProt entry; tags and fusion partners are left off.
UniProt P19474: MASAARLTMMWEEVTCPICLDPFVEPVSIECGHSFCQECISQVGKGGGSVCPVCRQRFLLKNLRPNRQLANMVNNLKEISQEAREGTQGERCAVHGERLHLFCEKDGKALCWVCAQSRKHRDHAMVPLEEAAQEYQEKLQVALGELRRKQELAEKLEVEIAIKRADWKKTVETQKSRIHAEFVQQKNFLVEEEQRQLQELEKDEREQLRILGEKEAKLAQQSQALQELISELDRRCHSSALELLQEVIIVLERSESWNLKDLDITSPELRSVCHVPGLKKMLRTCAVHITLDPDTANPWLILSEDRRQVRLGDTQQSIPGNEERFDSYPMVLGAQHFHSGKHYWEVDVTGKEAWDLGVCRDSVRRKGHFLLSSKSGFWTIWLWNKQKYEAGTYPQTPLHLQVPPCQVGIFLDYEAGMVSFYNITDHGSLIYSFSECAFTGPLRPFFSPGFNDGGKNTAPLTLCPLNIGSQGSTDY

This experiment concerns the target T1, EPDR1 (bait of the immunoprecipitation-mass spectrometry in HepG2 cells) (UniProt Q9UM22).
T1 sequence: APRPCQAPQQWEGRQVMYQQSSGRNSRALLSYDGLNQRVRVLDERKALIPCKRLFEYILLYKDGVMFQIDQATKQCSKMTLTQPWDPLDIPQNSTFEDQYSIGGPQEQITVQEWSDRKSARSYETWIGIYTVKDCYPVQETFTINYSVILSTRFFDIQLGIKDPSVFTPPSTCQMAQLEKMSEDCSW
Description: affinity purification with mass spectrometry; immunoprecipitation of EPDR1 from HepG2 cells, LC-MS/MS.

These are yes or no findings as the source states them, for the method shown. In cells and extracts the contact can be indirect. Here binding means that the protein was enriched with, or labelled near, the bait; the list need not be complete.

Consider “TRIM21 (found by LC-MS/MS with EPDR1 in HepG2 cells) (from UniProt P19474 1-475)”, for which the binding entry is given as “binds”.
